Results reported in patent US20240239863A1 (HANGZHOU ZHONGMEIHUADONG PHARMACEUTICAL CO., LTD., priority 2022, published 2024).

Assay: general procedure: Fmoc solid-phase peptide synthesis; Wang resin, 0.58 mmol/g (Fmoc-L-Tyr(tBu)-Wang resin); DIC/HOBt (DMAP for resin loading)
Settings: whole synthesis

Row | Substance | final purity (method not given)
1 | Y[Aib]EGTFISDYSIALDKLHQQDFVNWLLAQRG | 98.2%
2 | Y[Aib]EGTFISDYSIALDKLHQEDFVNWLLAQRG | 97.5%
3 | Y[Aib]EGTFISDYSIALDRIHQQDFVNWLLAQKG | 95.8%
4 | Y[Aib]EGTFISDYSIALDKIHQEDFVNWLLAQRG | 98.2%

Non-standard residues stand in square brackets, D forms with d. No end group written: not given here. Aib = CC(C)(N)C(=O)O
